Results are given in words; binding and its absence hold for the method and conditions named. In cells and extracts the contact can be indirect. Some results given as binding are weak or reduced against the parent protein; the word gives no strength.

The chains behind the UniProt entries cited, without tags or fusion partners. Where a name states a change or a piece, a line headed by the entry shows the natural chain unless it says otherwise. A line that says so, or that is headed by a name, gives the form on record, which may keep a tag or linker. Residues count along the entry.
UniProt P60842: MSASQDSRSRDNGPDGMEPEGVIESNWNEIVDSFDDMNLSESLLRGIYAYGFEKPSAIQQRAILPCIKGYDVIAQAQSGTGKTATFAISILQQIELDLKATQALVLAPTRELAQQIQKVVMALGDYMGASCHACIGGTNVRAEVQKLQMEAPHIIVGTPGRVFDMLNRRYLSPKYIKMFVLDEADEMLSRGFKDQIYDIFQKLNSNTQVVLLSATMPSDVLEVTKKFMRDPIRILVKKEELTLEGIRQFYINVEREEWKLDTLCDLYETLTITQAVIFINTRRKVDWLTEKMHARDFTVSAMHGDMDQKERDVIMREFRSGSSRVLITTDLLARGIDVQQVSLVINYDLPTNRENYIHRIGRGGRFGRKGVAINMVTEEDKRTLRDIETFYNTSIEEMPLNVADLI
UniProt P06730: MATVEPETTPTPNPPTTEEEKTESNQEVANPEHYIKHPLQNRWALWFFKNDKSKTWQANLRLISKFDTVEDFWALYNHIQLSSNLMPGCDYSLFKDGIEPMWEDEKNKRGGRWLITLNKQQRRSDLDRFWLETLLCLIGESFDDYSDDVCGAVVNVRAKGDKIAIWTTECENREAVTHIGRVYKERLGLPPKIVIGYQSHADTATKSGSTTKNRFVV
UniProt Q99816: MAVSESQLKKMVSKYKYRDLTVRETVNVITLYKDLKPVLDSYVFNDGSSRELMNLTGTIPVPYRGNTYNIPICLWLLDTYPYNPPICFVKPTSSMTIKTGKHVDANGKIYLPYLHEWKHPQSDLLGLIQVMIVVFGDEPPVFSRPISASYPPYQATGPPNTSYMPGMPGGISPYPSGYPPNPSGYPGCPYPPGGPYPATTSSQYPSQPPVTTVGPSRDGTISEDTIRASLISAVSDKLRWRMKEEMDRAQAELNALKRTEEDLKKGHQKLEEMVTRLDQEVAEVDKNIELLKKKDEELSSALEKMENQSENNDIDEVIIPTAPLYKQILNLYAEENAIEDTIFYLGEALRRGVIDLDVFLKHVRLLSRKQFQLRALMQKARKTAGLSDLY
TSG101-UEV-GFP: residues 2-145 of Q99816
TSG101-UEV mutant N45A (Q99816, form named): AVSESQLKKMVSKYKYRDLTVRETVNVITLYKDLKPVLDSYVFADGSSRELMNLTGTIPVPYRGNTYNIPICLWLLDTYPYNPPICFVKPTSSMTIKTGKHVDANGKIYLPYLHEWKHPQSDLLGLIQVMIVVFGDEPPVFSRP
TSG101-UEV mutant M95A (Q99816, form named): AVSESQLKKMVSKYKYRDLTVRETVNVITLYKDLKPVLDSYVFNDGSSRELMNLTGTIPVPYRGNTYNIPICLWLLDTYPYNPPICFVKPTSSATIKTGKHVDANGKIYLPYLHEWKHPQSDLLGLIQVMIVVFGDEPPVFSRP

The target in experiment [1] is eIF4A1-GFP fusion protein (UniProt P60842). The experiment can be described thus: co-IP.
The next experiment has as its target eIF4E-GFP fusion protein (UniProt P06730). The experiment can be described thus: co-IP.
Experiment [2] concerns the target TSG101 (human (endogenous in OVCAR8)) (UniProt Q99816). The experiment can be described thus: proximity ligation.
Another experiment concerns the target TSG101-UEV mutant N45A (UniProt Q99816). The experiment can be described thus: co-IP.
A further experiment deals with TSG101-UEV-GFP (UniProt Q99816). The experiment can be described thus: co-IP.
The target of experiment [3] is TSG101-GFP fusion protein (UniProt Q99816). The experiment can be described thus: co-IP.
Another experiment concerns the target TSG101-UEV mutant M95A (UniProt Q99816). The experiment can be described thus: co-IP.

For the substance TSG101 (from UniProt Q99816 1-390), the binding result (in experiment [1]; with eIF4E-GFP fusion protein) was “binds” each time.

As to eIF4A1 (from UniProt P60842 1-406), the binding entry is given as “binds” in experiment [2]; “no binding” with TSG101-UEV mutant N45A; “binds” with TSG101-UEV-GFP; “binds” in experiment [3]; “binds” with TSG101-UEV mutant M95A.

With “eukaryotic translation initiation factor 4E (eIF4E) (from UniProt P06730 1-217)”, the binding entry in experiment [2] is “binds”; with TSG101-UEV mutant N45A, “no binding”; with TSG101-UEV-GFP, “binds”; in experiment [3], “binds”; with TSG101-UEV mutant M95A, “binds”.

(Values after paper doi:10.1101/2024.12.06.627180.)
